# Primary screen of a compound library

The chains behind the UniProt entries cited, without tags or fusion partners.
UniProt E9BF75, entry or part of it: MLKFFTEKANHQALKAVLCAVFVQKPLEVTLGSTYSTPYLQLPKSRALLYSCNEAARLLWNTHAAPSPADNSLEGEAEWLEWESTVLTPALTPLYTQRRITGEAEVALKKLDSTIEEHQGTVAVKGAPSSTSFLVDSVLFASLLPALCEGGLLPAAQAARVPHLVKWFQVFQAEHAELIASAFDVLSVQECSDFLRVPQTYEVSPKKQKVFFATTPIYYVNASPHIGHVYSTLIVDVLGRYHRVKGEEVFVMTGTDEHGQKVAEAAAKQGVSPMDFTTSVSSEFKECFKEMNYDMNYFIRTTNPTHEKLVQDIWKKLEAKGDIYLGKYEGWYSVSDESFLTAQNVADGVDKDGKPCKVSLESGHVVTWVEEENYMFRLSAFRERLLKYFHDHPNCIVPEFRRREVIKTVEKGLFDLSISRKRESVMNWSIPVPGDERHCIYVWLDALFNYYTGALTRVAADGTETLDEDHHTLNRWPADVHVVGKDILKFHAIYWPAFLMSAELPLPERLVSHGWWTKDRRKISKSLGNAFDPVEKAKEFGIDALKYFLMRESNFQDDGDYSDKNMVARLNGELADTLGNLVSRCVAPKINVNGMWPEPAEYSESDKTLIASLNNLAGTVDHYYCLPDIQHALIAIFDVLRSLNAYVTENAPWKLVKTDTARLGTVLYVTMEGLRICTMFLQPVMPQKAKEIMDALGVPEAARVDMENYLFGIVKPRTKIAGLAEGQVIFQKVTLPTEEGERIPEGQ

The values are deposited in ChEMBL (CHEMBL3988442, “University of Dundee, Small-Polar-MMV Screening Library” (2021)).

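Methionyl-tRNA synthetase (putative), Leishmania donovani (UniProt E9BF75). Primary screen of methionyl-tRNA synthetase; the read-out is not stated. The test concentration is not given. Values are per cent inhibition. Of about 68,000 compounds tested this way, about 24 (0.035%) reached 50% or more in at least one test.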

Results are percentages, as filed. How 0% and 100% were set is not recorded. Most values in the screen are low, and negative values occur. Compounds were drawn at random from those tested, without regard to their results.

Compound | Inhibition
CC(C)(C)n1cc(C(=O)N2CCN(Cc3ccsc3)CC2)cn1 | 14.29
Fc1cccc(CN2CCO[C@H]3[C@@H](OCc4ccccn4)CC[C@@H]32)c1 | 5.579
CN(CC(=O)N1CC(Oc2ccccc2Cl)C1)Cc1ccncc1 | 7.419
NC(=O)c1ccc(CN2CCC(N3CCCCC3)CC2)cc1 | 11.72
Cc1cc(C(=O)N2CCN(c3nc4c(F)cccc4s3)CC2)no1 | 12.2
O=C(c1cnc2c(cnn2C2CCCC2)c1)N1CCCSCC1 | 15.56
COCCC(=O)N1CCC2(COCc3c(C)nc(NCC4CC4)nc32)C1 (stereo not drawn) | 15.68
COC(=O)c1ncccc1N1CCCCC1 | 3.081
Cc1ccc(NC(=O)CNc2cccc3c2CCCC3)c(Br)c1 | 11.52
CN1CCN(Cc2cn3c(n2)CN(CC2CC2)CC3)CC1 | 4.467
O=C(c1cccnc1)N1CCC2(CNS(=O)(=O)c3cnccc3O2)C1 (stereo not drawn) | 11.43
c1nc(N2CCCCC2Cn2cncn2)c2sccc2n1 (stereo not drawn) | 15.03
CNC(=O)c1ccc(C(=O)N2CCCC2c2cnn(C)c2)cn1 (stereo not drawn) | 9.449
CN1CCN(C(=O)[C@@H]2CN(C)C[C@]23COc2ccc(F)cc2C3=O)CC1 | -5.312
O=C(C[C@@H]1COC[C@H]2CN(C3CCOCC3)C[C@@H]12)Nc1cnccn1 | 11.98
Cc1cccc(CC(=O)NC2CCN(C(=O)NC(C)(C)C)CC2)c1 | 0.8357
O=C(Nc1ccc(F)c(Br)c1)N1CCCC1 | 18.1
CCn1c(CC2CCN(C(=O)c3ccnn3C)CC2)n[nH]c1=O | 11.72
CSc1nccn1-c1cccc(C(=O)NCCCN2CCOCC2)c1 | 13.39
O=C(NC[C@]12COC[C@H]1CN(Cc1nccs1)C2)c1cscn1 | 11.24
CC(C)(C)C(=O)N1CCCC1c1ccc(C(=O)N2CCOCC2)s1 (stereo not drawn) | 7.904
Cc1nn(C)c(C)c1CN(C)C(=O)c1cccc(CCC(C)(C)O)c1 | 3.352
CN(C)S(=O)(=O)N1CCC(OCCCc2ccccc2)C1 (stereo not drawn) | 10.47
CN(C)CCO[C@H]1CN(Cc2ccco2)[C@@H]2COC[C@H]12 | 17.05
O=C(c1cscn1)N1CCC2(CCN(Cc3nccs3)CC2)CC1 | 10.99
Clc1ccccc1C1(c2ccnc(C3CCCC3)n2)CCNCC1 | 7.357
Cc1nc(C)n(C2CCCN(C(=O)COc3cccc(C#N)c3)C2)n1 (stereo not drawn) | 13.96
Cn1c(C2CC2)nc2c1CCN(CCc1ccccn1)C2 | 6.738
O=C1OCCN1CC(=O)N1C[C@H]2CC[C@@H]1CN(C(=O)c1ccccc1)C2 | 10.57
Cc1ccc(C(=O)CCC(=O)N2CCC(c3nncn3C)CC2)cc1 | 6.883
Cc1ccc(CN2C[C@@H](c3ccccc3)[C@@]3(CCNC3=O)C2)o1 | 8.904
COc1ccc(S(=O)(=O)NCC(O)c2sccc2C)cc1Cl (stereo not drawn) | 10.07
COc1ncccc1CN1CC[C@H]2O[C@@H](c3nnc(C)o3)CC[C@H]21 | 13.41
CCn1ccnc1CN1CCCn2nc(CNC(=O)C3CCC3)cc2C1 | 4.013
CCn1ccnc1CN1CCCN(C(=O)c2cc(Cl)c[nH]2)CC1 | 11.66
CCOc1cccc(COC(=O)c2cscn2)n1 | 18.66
COCCN(Cc1ccc(C)cc1)Cc1c[nH]cn1 | 8.108
CCOCCNC(=O)c1cccc(Cn2nc(C)cc2C)c1 | 17.85
CCOCC(O)CN1CCN(C(=O)C2CCCCC2)CC1 (stereo not drawn) | 13.19
CCc1nc2n(n1)CC(NCc1cc(OC)c3c(c1)OCO3)CC2 (stereo not drawn) | 5.114
CC(C)SCCNC(=O)c1cccc2ccnn12 | 12.26
Cc1cccc(N2CCC(N3CCCC4(CNC(=O)O4)C3)CC2)c1C (stereo not drawn) | 8.271
CC(O)CN1CCN(Cc2nnc(C3CC3)o2)CC1 (stereo not drawn) | 1.408
CCN(CC)C(=O)[C@@H]1C[C@@H](n2cc(-c3cccc(OC)c3)nn2)CN1 | -1.72
O=C1[C@H]2CN(S(=O)(=O)C3CC3)C[C@H]2CN1CC1CC1 | 14.75
CN(C)CC(=O)N1CCCCC1c1nc(N)ncc1-c1ccccc1 (stereo not drawn) | 8.414
COc1ccc(CCNC(=O)CN2CCOCS2(=O)=O)cc1 | 6.186
CCN1CCN(C)C2(CCN(C(=O)CC(F)(F)F)CC2)C1=O | 4.945
CS(=O)(=O)NC1CCN(C(=O)NCc2ccccn2)CC1 | 16.83
CC(NCc1cnn(C)c1)c1noc(-c2ccc(Cl)cc2)n1 (stereo not drawn) | 5.759
COCCN(C(=O)c1c[nH]c2ncccc12)C1CCCC1 | 13.71
CC(C(=O)Nc1ccc(N2CCCC2)nc1)n1ccnc1 (stereo not drawn) | 16.34
Cc1ccc(-c2nc(CN3CCOC(Cn4cccn4)C3)co2)cc1 (stereo not drawn) | 21.65
CC(C)CNC(=O)N1C[C@H]2CC[C@@]3(N=C(c4ccccc4)NC3=O)[C@H]2C1 | 19.26
COc1ccc2c(c1)C(=O)NC1(CC2)CCN(Cc2ccccc2)C1 (stereo not drawn) | 15.22
CCSc1ncccc1C(=O)NCc1ccc(N(C)C)cc1 | -1.944
CC(C)N1CCC(N2CCOC3(CCCC3)C2)C1=O (stereo not drawn) | 6.964
O=C(NC[C@H]1OC[C@@H](NC2CCC(F)(F)CC2)[C@@H]1O)N1CCOCC1 | 8.475
CN(Cc1cccs1)C(=O)c1ccc(N2CCOCC2)c(F)c1 | 4.416
CCc1nccn1C1CCCN(C(=O)Cc2ccc(OC)c(F)c2)C1 (stereo not drawn) | 20.28
COCCOc1ccc(NC(=O)C2CC(=O)N(C)C2)cn1 (stereo not drawn) | 9.859

For reference, 5 entries once more:

Compound	Inhibition
O=C(NC[C@]12COC[C@H]1CN(Cc1nccs1)C2)c1cscn1	11.24
CN(CC(=O)N1CC(Oc2ccccc2Cl)C1)Cc1ccncc1	7.419
CC(C)CNC(=O)N1C[C@H]2CC[C@@]3(N=C(c4ccccc4)NC3=O)[C@H]2C1	19.26
CCN(CC)C(=O)[C@@H]1C[C@@H](n2cc(-c3cccc(OC)c3)nn2)CN1	-1.72
CN1CCN(C(=O)[C@@H]2CN(C)C[C@]23COc2ccc(F)cc2C3=O)CC1	-5.312